Numbering of substitutions follows the chain as printed. These are yes or no findings as the source states them, for the method shown. Some entries that bind do so weakly or less than the wild type.
B1: HuJS007-91 (antibody, V domains shown)
VH: QVQLQESGPGLVKPSQTLSLTCAVSGYSISSGYYWNWIRQPPGKGLEWIGYIGYDGSNYYNPSLKSRITISRDTSKNQFSLKLSSVTAVDTAVYYCARNYYSGYFDSWGQGTTVTVSS
VL: DIVMTQSPDSLAVSLGERATINCKASQNVGTYVAWYQQKPGQPPKPLIYSTSYRYSGVPDRFSGSGSGTDFTLTISSLQAEDVAVYFCHQYDTYPLTFGAGTKLELK
B2: HuJS007-15 (antibody, V domains shown)
VH: B1 VH with A23T, S30T, P41H, I68V, V89A, Y95F, S107F, V114L
VL: B1 VL with P46L, F87Y, A100Q, L106I
B3: HuJS007-12 (antibody, V domains shown)
VH: B1 VH with A23T, S30T, P41H, I68V, V89A, Y95F, S107F, V114L
VL: DIQMTQSPSSLSASVGDRVTITCRASQNVGTYVAWYQQKPGKAPKPLIYSTSYRYSGVPSRFSGSGSGTDFTLTISSLQPEDFATYFCHQYDTYPLTFGAGTKLELK
B4: HuJS007-14 (antibody, V domains shown)
VH: B1 VH with A23T, S30T, P41H, I68V, V89A, Y95F, S107F, V114L
VL: B3 VL with R24Q, L73F, F83I
B5: HuJS007-99 (antibody, V domains shown)
VH: B1 VH
VL: EIVMTQSPATLSVSPGERATLSCKASQNVGTYVAWYQQKPGQAPRPLIYSTSYRYSGIPARFSGSGSGTEFTLTISSLQSEDFAVYFCHQYDTYPLTFGQGTKLEIK
B6: HuJS007-3 (antibody, V domains shown)
VH: B1 VH with A23T, P41H, I68V, V89A, Y95F, S107F, V114L
VL: B3 VL
B7: HuJS007-9 (antibody, V domains shown)
VH: B1 VH with A23T, P41H, I68V, V89A, Y95F, S107F, V114L
VL: B5 VL
B8: HuJS007-8 (antibody, V domains shown)
VH: B1 VH with A23T, P41H, I68V, V89A, Y95F, S107F, V114L
VL: B1 VL with A100Q, L106I
B9: HuJS007-95 (antibody, V domains shown)
VH: B1 VH
VL: B3 VL with R24Q, L73F, F83I
B10: HuJS007-13 (antibody, V domains shown)
VH: B1 VH with A23T, S30T, P41H, I68V, V89A, Y95F, S107F, V114L
VL: B3 VL with S10F, D70E
B11: HuJS007-97 (antibody, V domains shown)
VH: B1 VH
VL: B5 VL with K24R, F87Y
B12: HuJS007-93 (antibody, V domains shown)
VH: B1 VH
VL: B3 VL
B13: HuJS007-5 (antibody, V domains shown)
VH: B1 VH with A23T, P41H, I68V, V89A, Y95F, S107F, V114L
VL: B3 VL with R24Q, L73F, F83I
B14: HuJS007-4 (antibody, V domains shown)
VH: B1 VH with A23T, P41H, I68V, V89A, Y95F, S107F, V114L
VL: B3 VL with S10F, D70E
B15: HuJS007-2 (antibody, V domains shown)
VH: B1 VH with A23T, P41H, I68V, V89A, Y95F, S107F, V114L
VL: B3 VL with A43V, F83V
B16: HuJS007-7 (antibody, V domains shown)
VH: B1 VH with A23T, P41H, I68V, V89A, Y95F, S107F, V114L
VL: B5 VL with K24R, F87Y
B17: HuJS007-6 (antibody, V domains shown)
VH: B1 VH with A23T, P41H, I68V, V89A, Y95F, S107F, V114L
VL: B1 VL with P46L, F87Y, A100Q, L106I
B18: HuJS007-96 (antibody, V domains shown)
VH: B1 VH
VL: B1 VL with P46L, F87Y, A100Q, L106I
B19: HuJS007-10 (antibody, V domains shown)
VH: B1 VH with A23T, S30T, P41H, I68V, V89A, Y95F, S107F, V114L
VL: B1 VL
B20: HuJS007-98 (antibody, V domains shown)
VH: B1 VH
VL: B1 VL with A100Q, L106I
B21: HuJS007-1 (antibody, V domains shown)
VH: B1 VH with A23T, P41H, I68V, V89A, Y95F, S107F, V114L
VL: B1 VL
B22: HuJS007-92 (antibody, V domains shown)
VH: B1 VH
VL: B3 VL with A43V, F83V
B23: HuJS007-94 (antibody, V domains shown)
VH: B1 VH
VL: B3 VL with S10F, D70E
B24: HuJS007-11 (antibody, V domains shown)
VH: B1 VH with A23T, S30T, P41H, I68V, V89A, Y95F, S107F, V114L
VL: B3 VL with A43V, F83V

Protein sequences, listed by entry. Tags and fused reporters are not part of them. Lines headed by an entry give the natural chain unless they say otherwise; changes in a name come on top.
UniProt P16410: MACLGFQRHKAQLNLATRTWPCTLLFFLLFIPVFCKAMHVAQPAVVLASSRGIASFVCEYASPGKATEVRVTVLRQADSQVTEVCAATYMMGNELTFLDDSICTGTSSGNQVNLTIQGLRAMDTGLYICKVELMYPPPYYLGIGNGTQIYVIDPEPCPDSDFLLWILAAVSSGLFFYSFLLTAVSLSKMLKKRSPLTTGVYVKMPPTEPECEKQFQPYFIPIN

Each binder was assayed against huCTLA-4 ECD (his-tag) (human) (UniProt P16410) (assay: ELISA, coated huCTLA-4 his).

binding, binds:
B1, B2, B3, B4, B5, B6, B7, B8, B9, B10, B11, B12, B13, B14, B15, B16, B17, B18, B19, B20, B21, B22, B23, B24

From US20230295301A1
